This experiment has as its system Candida albicans. Put plainly: Antifungal activity against Candida albicans at 10 mg/ml by cup-plate technique. Type of experiment: functional, organism-based.

In turn, NYSTATIN gave an inhibition zone (IZ) of 20 mm.

The record behind these values is ChEMBL document CHEMBL3045991, “Synthesis of new 2(1H)-quinoxalinone derivatives for antimicrobial and antiinflammatory evaluation” (Med Chem Res, 2009).
